Patent publication US5756066A (Schering Aktiengesellschaft, priority 1995, dated 1998)

Experiment: general procedure: Fmoc solid-phase peptide synthesis; SPPS resin substituted with Fmoc-Ala at 0.33 milliequivalents per gram (0.43 meq/g in one example); PyBOP, HOBT
Conditions: conjugation step, TFA salt (peptide)

Substance	conjugation yield (of theory)	conjugation yield
Octatetracontakis-{3-(4-sodium carboxylato-3-oxabutyrylamino)-5-(2,3-dihydroxy-propylcarbamoyl)-2,4,6-triiodobenzoyl} derivative of the lysine-alanine copolymer (K5)8 K4 K2 K-A--OH	82.6% of theory	
Dotriacontakis-{3,5-bis-(disodium phosphonatomethylcarba-moyl)-2,4,6-triiodaryl-carbamoyl} derivative of the lysine-alanine copolymer (K3)8 K4 K2 K-A--OH		75.9% of theory
Octatetracontakis-{3-sodium carboxylatoformylamino-5-(2,3-dihydroxypropylcarbamoyl)-2,4,6-triiodobenzoyl} derivative of the lysine-alanine copolymer (K5)8 K4 K2 K-A--OH	91.4% of theory	
dotriacontakis-{3-(3-sodium carboxylatopropionylamino)-5-(2,3-dihydroxypropylcarbamoyl)-2,4,6-triiodobenzoyl} derivative of the lysine-proline-cysteine-alanine copolymer (K3)8 K4 K2 K-P10 -C-A		83.6% of theory
Octatetracontakis-{N-methoxyacetyl-3-methylamino-5-(2-sodium sulfonatoethylcarbamoyl)-2,4,6-triiodobenzoyl} derivative of the lysine-alanine copolymer (K5)8 K4 K2 K-A--OH		59.8% of theory
Dotriacontakis-{3,5-di-(sodium carboxylatomethylcarbamoyl)-2,4,6-triiodophenyl-carbamoyl} derivative of the lysine-alanine copolymer (K3)8 K4 K2 K-A--OH	81.6% of theory	
Dotriacontakis-{3-(3-sodium carboxylatopropionylamino)-5-(2,3-dihydroxypropylcarbamoyl)-2,4,6-triiodobenzoyl} derivative of the lysine-alanine copolymer (K3)8 K4 K2 K-A--OH	88.1% of theory	
Octatriacontakis-{3-(4-sodium carboxylato-3-oxabutyryl-amino)-5-(2,3-dihydroxy-propylcarbamoyl)-2,4,6-triiodobenzoyl}-tetrakis-(4-sodium carboxylato-3-oxabutyryl) derivative of the lysine-alanine copolymer (K20)2 K-A--OH		89.1% of theory
